Legend:
ovarian cancer samples = assay: Relative LC-MS quantitation of HLA-presented peptides: presentation and over-presentation on ovarian cancer vs a panel of normal tissues (presentation score); parameters: species or system human; key: +++: very highly over-presented on tumors compared to a panel of normal tissues; ++: highly over-presented on tumors compared to a panel of normal tissues; +: over-presented on tumors compared to a panel of normal tissues; details: over-presentation on tumors compared to a panel of normal tissues
additional tumor types = assay: LC-MS detection and over-presentation of the peptides on additional tumor types, cell lines and primary cultures; parameters: species or system human; details: for peptide additionally detected on tumor samples (positive/measured): sample set of FIG. 1A-D
[1] = cell lines and primary cultures
[2] = leukocytic leukemia cancers (FIG. 1D: leukemias)

| Substance | Peptide Presentation (presentation score) (ovarian cancer samples) | other results |
| --- | --- | --- |
| 1 (SLMEPPAVLLL; listed as Homo sapiens) [compound 1] | +++ | Other relevant organs/ cancerous diseases (additional tumor types; Table 4A: additional tumor types on which the peptide was found, over-presented on more than 5% of measured tumor samples, or presented on more than 5% with ratio of geometric means tumor vs normal tissues larger than 3): NSCLC, SCLC, Esophageal Cancer; Additional organs/cancerous diseases (additional tumor types; amendment of Table 4: additional tumor types showing over-presentation (including specific presentation) on more than 5% of measured tumor samples, or presentation on more than 5% with ratio of geometric means tumor vs normal tissues larger than 3): BRCA, Urinary Bladder Cancer, Uterine Cancer, AML, HNSCC |
| 4 (GIMEHITKI; listed as Homo sapiens) [compound 4] | +++ |  |
| 12 (SLWPDPMEV; listed as Homo sapiens) [compound 12] | +++ |  |
| 25 (FLPDEPYIKV; listed as Homo sapiens) [compound 25] | +++ |  |
| 35 (KINDTIYEV; listed as Homo sapiens) [compound 35] | +++ |  |
| 37 (LLWDVVTGQSV; listed as Homo sapiens) [compound 37] | +++ |  |
| 39 (SVAPNLPAV; listed as Homo sapiens) [compound 39] | +++ |  |
| 41 (SLMPHIPGL; listed as Homo sapiens) [compound 41] | +++ |  |
| 44 (ILDPISSGFLL; listed as Homo sapiens) [compound 44] | +++ |  |
| 46 (ILTEENIHL; listed as Homo sapiens) [compound 46] | +++ |  |
| 50 (SLSELEALM; listed as Homo sapiens) [compound 50] | +++ |  |
| 52 (FLLAHGLGFLL; listed as Homo sapiens) [compound 52] | +++ |  |
| 53 (KMIETDILQKV; listed as Homo sapiens) [compound 53] | +++ |  |
| 70 (GLLDYPVGV; listed as Homo sapiens) [compound 70] | +++ |  |
| 89 (YILPTETIYV; listed as Homo sapiens) [compound 89] | +++ |  |
| 90 (TLLQIIETV; listed as Homo sapiens) [compound 90] | +++ |  |
| 96 (YIFTDNPAAV; listed as Homo sapiens) [compound 96] | +++ |  |
| 99 (ALVSKGLATV; listed as Homo sapiens) [compound 99] | +++ |  |
| 109 (IILSILEQA; listed as Homo sapiens) [compound 109] | +++ |  |
| 112 (FLITSNNQL; listed as Homo sapiens) [compound 112] | +++ |  |

| Substance | Peptide Presentation (presentation score) (ovarian cancer samples) | other results |
| --- | --- | --- |
| 113 (GLLPTPLFGV; listed as Homo sapiens) [compound 113] | +++ |  |
| 114 (SLVGEPILQNV; listed as Homo sapiens) [compound 114] | +++ |  |
| 122 (FLLAEDDIYL; listed as Homo sapiens) [compound 122] | +++ |  |
| 130 (FLWNGEDSALL; listed as Homo sapiens) [compound 130] | +++ |  |
| 136 (YLADPSNLFVV; listed as Homo sapiens) [compound 136] | +++ |  |
| 156 (AISQGITLPSL; listed as Homo sapiens) [compound 156] | +++ |  |
| 158 (KLFDVDEDGYI; listed as Homo sapiens) [compound 158] | +++ |  |
| 162 (YQQAQVPSV; listed as Homo sapiens) [compound 162] | +++ |  |
| 165 (SLLDEIRAV; listed as Homo sapiens) [compound 165] | +++ |  |
| 168 (KILDADIQL; listed as Homo sapiens) [compound 168] | +++ |  |
| 181 (LLWAGTAFQV; listed as Homo sapiens) [compound 181] | +++ |  |
| 189 (ALQRKLPYV; listed as Homo sapiens) [compound 189] | +++ |  |
| 196 (YLYSVEIKL; listed as Homo sapiens) [compound 196] | +++ |  |
| 202 (ALLDQQGSRWTL; listed as Homo sapiens) [compound 202] | +++ |  |
| 203 (VLLEDAHSHTL; listed as Homo sapiens) [compound 203] | +++ |  |
| 215 (QLINHLHAV; listed as Homo sapiens) [compound 215] | +++ |  |
| 219 (KLSDIGITV; listed as Homo sapiens) [compound 219] | +++ |  |
| 220 (LLQKFVPEI; listed as Homo sapiens) [compound 220] | +++ |  |
| 221 (ALYEEGLLL; listed as Homo sapiens) [compound 221] | +++ |  |
| 223 (ALLENIALYL; listed as Homo sapiens) [compound 223] | +++ |  |

| Substance | Peptide Presentation (presentation score) (ovarian cancer samples) | other results |
| --- | --- | --- |
| 225 (SLLKVLPAL; listed as Homo sapiens) [compound 225] | +++ |  |
| 231 (FLSPQQPPLLL; listed as Homo sapiens) [compound 231] | +++ |  |
| 232 (ALLEAQDVELYL; listed as Homo sapiens) [compound 232] | +++ |  |
| 239 (AAFAGKLLSV; listed as Homo sapiens) [compound 239] | +++ |  |
| 245 (SMIDDLLGV; listed as Homo sapiens) [compound 245] | +++ |  |
| 254 (TLLAFIMEL; listed as Homo sapiens) [compound 254] | +++ |  |
| 368 (ILLEEVSPEL; listed as Homo sapiens) [compound 368] | + |  |
| 442 (GLLGGGGVLGV; listed as Homo sapiens) [compound 442] | +++ |  |
| 460 (AMLEKNYKL; listed as Homo sapiens) [compound 460] | +++ |  |
| 462 (KLAKQPETV; listed as Homo sapiens) [compound 462] | +++ |  |
| 471 (YLYNNMIAKI; listed as Homo sapiens) [compound 471] | +++ |  |
| 515 (LLQELVLFL; listed as Homo sapiens) [compound 515] | +++ |  |
| 516 (AVGPASILKEV; listed as Homo sapiens) [compound 516] | +++ |  |
| TLAELQPPVQL (listed as Homo sapiens) [SEQ ID NO.: 57] |  | number of samples with detectable presentation of the peptide (additional tumor types; bile duct cancers): 1; number of samples with detectable presentation of the peptide (additional tumor types; brain cancers): 1; number of samples with detectable presentation of the peptide (additional tumor types; cancer tissues, total): 32; number of samples with detectable presentation of the peptide (additional tumor types; [1]): 4; number of samples with detectable presentation of the peptide (additional tumor types; esophageal cancers): 2; number of samples with detectable presentation of the peptide (additional tumor types; head and neck cancers): 3; number of samples with detectable presentation of the peptide (additional tumor types; [2]): 2; number of samples with detectable presentation of the peptide (additional tumor types; liver cancers): 1; number of samples with detectable presentation of the peptide (additional tumor types; lung cancers): 9; number of samples with detectable presentation of the peptide (additional tumor types; lymph node cancers): 4; number of samples with detectable presentation of the peptide (additional tumor types; skin cancers): 2; number of samples with detectable presentation of the peptide (additional tumor types; urinary bladder cancers): 1; number of samples with detectable presentation of the peptide (additional tumor types; uterus cancers): 1 |
| VLIANLEKL (listed as Homo sapiens) [SEQ ID NO.: 466] |  | number of samples with detectable presentation of the peptide (additional tumor types; breast cancers): 3; number of samples with detectable presentation of the peptide (additional tumor types; cancer tissues, total): 17; number of samples with detectable presentation of the peptide (additional tumor types; [1]): 5; number of samples with detectable presentation of the peptide (additional tumor types; esophageal cancers): 2; number of samples with detectable presentation of the peptide (additional tumor types; liver cancers): 1; number of samples with detectable presentation of the peptide (additional tumor types; lung cancers): 2; number of samples with detectable presentation of the peptide (additional tumor types; lymph node cancers): 5; number of samples with detectable presentation of the peptide (additional tumor types; urinary bladder cancers): 1 |
| VLVSDGVHSV (listed as Homo sapiens) [SEQ ID NO.: 6] |  | peptide additionally detected on tumor samples (positive/measured) (additional tumor types; Merkel cell carcinomas): 1/2; peptide additionally detected on tumor samples (positive/measured) (additional tumor types; breast cancers): 1/6 |
| VMNDRLYAI (listed as Homo sapiens) [SEQ ID NO.: 587] |  | number of samples with detectable presentation of the peptide (additional tumor types; cancer tissues, total): 38; number of samples with detectable presentation of the peptide (additional tumor types; [2]): 14; number of samples with detectable presentation of the peptide (additional tumor types; lymph node cancers): 10; number of samples with detectable presentation of the peptide (additional tumor types; prostate cancers): 1; number of samples with detectable presentation of the peptide (additional tumor types; uterus cancers): 4 |
| YLMDINGKMWL (listed as Homo sapiens) [SEQ ID NO.: 184] |  | number of samples with detectable presentation of the peptide (additional tumor types; breast cancers): 1; number of samples with detectable presentation of the peptide (additional tumor types; cancer tissues, total): 19; number of samples with detectable presentation of the peptide (additional tumor types; [1]): 1; number of samples with detectable presentation of the peptide (additional tumor types; gallbladder cancer): 1; number of samples with detectable presentation of the peptide (additional tumor types; [2]): 1; number of samples with detectable presentation of the peptide (additional tumor types; lung cancers): 6; number of samples with detectable presentation of the peptide (additional tumor types; lymph node cancers): 2; number of samples with detectable presentation of the peptide (additional tumor types; skin cancers): 2; number of samples with detectable presentation of the peptide (additional tumor types; uterus cancers): 1 |
| YLNHLEPPV (listed as Homo sapiens) [SEQ ID NO.: 166] |  | number of samples with detectable presentation of the peptide (additional tumor types; brain cancers): 3; number of samples with detectable presentation of the peptide (additional tumor types; breast cancers): 1; number of samples with detectable presentation of the peptide (additional tumor types; cancer tissues, total): 20; number of samples with detectable presentation of the peptide (additional tumor types; [1]): 2; number of samples with detectable presentation of the peptide (additional tumor types; esophageal cancers): 1; number of samples with detectable presentation of the peptide (additional tumor types; [2]): 3; number of samples with detectable presentation of the peptide (additional tumor types; liver cancers): 2; number of samples with detectable presentation of the peptide (additional tumor types; lung cancers): 4; number of samples with detectable presentation of the peptide (additional tumor types; lymph node cancers): 2; number of samples with detectable presentation of the peptide (additional tumor types; myeloid cell cancer): 1 |

From patent US11230581B2, “Peptides and combination of peptides for use in immunotherapy against ovarian cancer and other cancers” (Immatics Biotechnologies GmbH, priority 2015, dated 2022)
